Among the data in paper PMC9667534 (ACS Pharmacology & Translational Science, 2022) are conjugation yield values, retold here.

The data set in a line: peptide synthesis. The settings on record: conjugation step.

HELM strings list residues between dots; [ac] is acetyl, [am] amide, other brackets name non-standard units.

With “PEPTIDE1{D.[Arg(carb)].V.Y.I.H.P.F}$$$$V2.0”, the conjugation yield came to 13%.
